In US10251778B2, “Therapeutics dispensing device and methods of making same” (Baylor College of Medicine, priority 2012, dated 2019):
At least one compound was matched to its structure with a doubt left.

Tests used:
[1] = system: dry eye induced mouse model; assay: Corneal smoothness (white-light ring reflection) in dry eye induced mouse model; format: in vivo; settings: eye drops twice a day; after 5 days; in comparison with nanowafer
[2] = system: ocular burn mouse model; assay: Rate of ocular perforation in eyes subjected to ocular burn (OB) + desiccating stress (DS); format: in vivo; settings: conventional topical eye drops four times/day
[3] = system: inflammatory cytokines and MMPs; assay: Gene expression of inflammatory cytokines and MMPs in corneas subjected to OB+DS; format: in vivo, mouse; settings: conventional topical eye drops four times/day; after 2 days of initial insult

Row | SMILES | improvement in smoothening of the corneal surface [1] | number of corneal perforations [2] | IL-1β, MMP3,-8,-9 expression [3]
1 | C[C@@H]1C[C@H]2[C@@H]3CCC4=CC(=O)C=C[C@]4(C)[C@@]3(F)[C@@H](O)C[C@]2(C)[C@@]1(O)C(=O)CO [dexamethasone] | did not show as much improvement | – | –
2 | C[C@H]1c2cccc(O)c2C(=O)C2=C(O)[C@]3(O)C(=O)C(C(N)=O)=C(O)[C@@H](N(C)C)[C@@H]3[C@@H](O)[C@@H]21 [doxycycline] | did not show as much improvement | significantly lower | significantly decreased
